From publication PMC3745395
These are yes or no findings as the source states them, for the method shown. Binding seen in cells or lysates may run through a third protein. Some entries that bind do so weakly or less than the wild type. Blank lines part the entries; values can stand above or below the molecule they belong to.

By UniProt entry, the sequences of proteins in these tests, tags left out.
UniProt Q9EPK8: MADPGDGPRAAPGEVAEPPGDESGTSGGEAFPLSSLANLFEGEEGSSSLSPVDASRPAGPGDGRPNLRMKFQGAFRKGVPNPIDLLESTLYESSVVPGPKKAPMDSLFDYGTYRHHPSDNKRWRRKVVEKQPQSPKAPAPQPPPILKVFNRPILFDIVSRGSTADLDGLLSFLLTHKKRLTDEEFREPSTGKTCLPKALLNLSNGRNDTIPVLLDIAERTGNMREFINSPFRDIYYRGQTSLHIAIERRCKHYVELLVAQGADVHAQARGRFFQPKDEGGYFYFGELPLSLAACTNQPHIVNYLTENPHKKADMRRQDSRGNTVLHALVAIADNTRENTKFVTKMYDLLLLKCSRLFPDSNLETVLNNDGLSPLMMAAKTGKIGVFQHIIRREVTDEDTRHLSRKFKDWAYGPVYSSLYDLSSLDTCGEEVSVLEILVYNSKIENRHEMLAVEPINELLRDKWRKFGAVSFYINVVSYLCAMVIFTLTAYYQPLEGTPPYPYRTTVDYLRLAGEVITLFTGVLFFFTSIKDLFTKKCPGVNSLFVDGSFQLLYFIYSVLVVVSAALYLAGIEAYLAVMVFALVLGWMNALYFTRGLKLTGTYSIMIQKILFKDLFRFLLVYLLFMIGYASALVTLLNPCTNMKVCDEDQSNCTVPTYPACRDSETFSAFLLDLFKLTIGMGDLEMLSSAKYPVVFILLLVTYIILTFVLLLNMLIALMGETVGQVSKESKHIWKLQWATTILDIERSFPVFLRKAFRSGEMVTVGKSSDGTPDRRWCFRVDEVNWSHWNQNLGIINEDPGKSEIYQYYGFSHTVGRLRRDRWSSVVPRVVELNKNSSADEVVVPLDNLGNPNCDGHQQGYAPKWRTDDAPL

Tests used:
[1] = target: T1, TRPP2 of inner medullary collecting duct (IMCD) cells (UniProt O35245); assay: co-IP; endogenous proteins of IMCD cells (Figure S3b); details not shown
T1 sequence: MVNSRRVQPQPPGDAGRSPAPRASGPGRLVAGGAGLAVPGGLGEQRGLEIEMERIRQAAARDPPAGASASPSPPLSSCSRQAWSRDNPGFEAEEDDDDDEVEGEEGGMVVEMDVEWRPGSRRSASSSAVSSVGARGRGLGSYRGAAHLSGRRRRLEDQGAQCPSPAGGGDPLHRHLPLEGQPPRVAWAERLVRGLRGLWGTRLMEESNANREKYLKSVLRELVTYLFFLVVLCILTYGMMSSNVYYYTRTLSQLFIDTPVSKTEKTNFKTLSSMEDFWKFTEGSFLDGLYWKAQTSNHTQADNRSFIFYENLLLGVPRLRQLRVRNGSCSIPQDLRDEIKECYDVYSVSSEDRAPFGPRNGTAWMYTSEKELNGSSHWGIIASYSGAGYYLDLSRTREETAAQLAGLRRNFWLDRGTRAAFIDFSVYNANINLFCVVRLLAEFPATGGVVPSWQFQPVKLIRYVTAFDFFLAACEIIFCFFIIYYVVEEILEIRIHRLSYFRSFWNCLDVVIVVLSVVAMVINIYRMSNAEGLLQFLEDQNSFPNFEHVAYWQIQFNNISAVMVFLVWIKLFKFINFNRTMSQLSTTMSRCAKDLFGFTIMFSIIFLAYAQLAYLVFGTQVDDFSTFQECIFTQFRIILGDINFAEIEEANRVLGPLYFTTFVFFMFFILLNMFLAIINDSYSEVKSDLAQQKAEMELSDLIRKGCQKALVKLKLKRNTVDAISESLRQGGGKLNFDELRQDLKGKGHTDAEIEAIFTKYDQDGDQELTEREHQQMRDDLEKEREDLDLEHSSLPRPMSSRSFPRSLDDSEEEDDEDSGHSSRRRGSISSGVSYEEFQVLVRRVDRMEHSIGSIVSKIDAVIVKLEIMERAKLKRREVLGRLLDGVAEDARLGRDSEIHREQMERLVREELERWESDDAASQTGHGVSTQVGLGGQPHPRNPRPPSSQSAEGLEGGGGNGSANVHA

[2] = target: T2, TRPP2 (mouse (endogenous in orpk collecting duct cells)) (UniProt O35245); assay: co-IP; orpk cilia (+) and cilia (-) cells lysed in Triton buffer; 500 ug protein with 4 ug anti-TRPP2 or anti-TRPV4 antibody overnight at 4 C, protein G beads, western blot for the other protein; n-IgG as control; for EGF treatment cells serum starved and given 10 ng/mL EGF for 30 min
T2 sequence: T1 sequence

[3] = target: TRPV4 (mouse (endogenous in orpk collecting duct cells)) (UniProt Q9EPK8); assay: as above

binding [1]: binds
Molecule: TRPV4 of inner medullary collecting duct (IMCD) cells (from UniProt Q9EPK8 1-871)

binding [2]: binds
Molecule: TRPV4 (from UniProt Q9EPK8 1-871)

binding [3]: binds
B1: TRPP2 (protein, UniProt O35245-1 1-966)
chain: T1 sequence
